Results are given in words; binding and its absence hold for the method and conditions named. Binding seen in cells or lysates may run through a third protein. Some results given as binding are weak or reduced against the parent protein; the word gives no strength.
Tests used:
[1] = biological target: EWS RNA-binding protein 1 (EWSR1) (human (endogenous in HCC cell lines)) (UniProt Q01844); experiment: co-IP; endogenous proteins; 1 x 10^7 HCC cells in 1 mL IP lysis buffer, sonicated; supernatant with anti-human EWSR1 (CST 11910, 5 ug) or rabbit IgG for 4 h and beads for 2 h; western blot; also in cells with LINC01116 overexpression or knockdown (binding reduced or enhanced)
FLAG-tagged EWSR1(1-656) = FLAG-tagged EWSR1(1-656) (UniProt Q01844); experiment: co-IP; 293T cells transfected with vectors for FLAG-tagged EWSR1 and its truncations; western blot

By UniProt entry, the sequences of proteins in these tests, tags left out.
UniProt Q01844: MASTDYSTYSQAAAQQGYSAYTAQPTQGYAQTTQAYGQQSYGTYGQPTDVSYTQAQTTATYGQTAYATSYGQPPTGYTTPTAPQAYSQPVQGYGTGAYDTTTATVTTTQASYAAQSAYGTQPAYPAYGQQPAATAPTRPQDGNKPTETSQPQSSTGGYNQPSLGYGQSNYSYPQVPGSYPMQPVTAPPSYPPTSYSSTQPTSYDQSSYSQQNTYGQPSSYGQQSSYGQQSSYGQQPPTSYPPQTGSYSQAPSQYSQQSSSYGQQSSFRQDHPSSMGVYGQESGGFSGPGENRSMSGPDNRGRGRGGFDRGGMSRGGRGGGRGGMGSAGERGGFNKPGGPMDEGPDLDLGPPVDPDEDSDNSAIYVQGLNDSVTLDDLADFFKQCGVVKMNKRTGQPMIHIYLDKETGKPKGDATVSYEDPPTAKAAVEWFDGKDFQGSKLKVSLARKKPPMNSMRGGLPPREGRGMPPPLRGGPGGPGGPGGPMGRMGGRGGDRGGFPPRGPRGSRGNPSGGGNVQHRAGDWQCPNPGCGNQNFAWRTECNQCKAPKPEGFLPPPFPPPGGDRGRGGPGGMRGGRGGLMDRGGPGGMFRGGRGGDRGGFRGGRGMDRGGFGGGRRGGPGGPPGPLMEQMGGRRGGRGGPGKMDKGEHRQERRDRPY
UniProt Q9NS91: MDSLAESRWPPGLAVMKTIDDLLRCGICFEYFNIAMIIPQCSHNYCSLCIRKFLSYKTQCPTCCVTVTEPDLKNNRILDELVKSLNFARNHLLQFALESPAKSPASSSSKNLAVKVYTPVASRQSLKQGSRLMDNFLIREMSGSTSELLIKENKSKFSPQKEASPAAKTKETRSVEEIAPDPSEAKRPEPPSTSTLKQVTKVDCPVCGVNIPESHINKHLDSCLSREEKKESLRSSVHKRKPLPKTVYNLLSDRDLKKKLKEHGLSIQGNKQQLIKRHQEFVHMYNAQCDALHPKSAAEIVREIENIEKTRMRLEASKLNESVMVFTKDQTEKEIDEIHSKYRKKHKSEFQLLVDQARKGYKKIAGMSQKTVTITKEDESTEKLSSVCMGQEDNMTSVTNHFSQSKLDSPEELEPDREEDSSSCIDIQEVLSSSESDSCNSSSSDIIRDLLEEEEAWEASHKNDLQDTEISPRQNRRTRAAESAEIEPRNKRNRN

| Substance | binding [1] | binding (FLAG-tagged EWSR1(1-656)) |
| --- | --- | --- |
| RAD18 E3 Ubiquitin Protein Ligase (RAD18) (from UniProt Q9NS91 1-495) | binds | – |
| RAD18 in 293T cells (from UniProt Q9NS91 1-495) | – | binds |

Source: article PMC11151013
